Source: PMC8410792
These are yes or no findings as the source states them, for the method shown. In cells and extracts the contact can be indirect. Some entries that bind do so weakly or less than the wild type. For some of these results: Tags and fused reporters may be left off the sequences shown.

The chains behind the UniProt entries cited, without tags or fusion partners.
UniProt P01106: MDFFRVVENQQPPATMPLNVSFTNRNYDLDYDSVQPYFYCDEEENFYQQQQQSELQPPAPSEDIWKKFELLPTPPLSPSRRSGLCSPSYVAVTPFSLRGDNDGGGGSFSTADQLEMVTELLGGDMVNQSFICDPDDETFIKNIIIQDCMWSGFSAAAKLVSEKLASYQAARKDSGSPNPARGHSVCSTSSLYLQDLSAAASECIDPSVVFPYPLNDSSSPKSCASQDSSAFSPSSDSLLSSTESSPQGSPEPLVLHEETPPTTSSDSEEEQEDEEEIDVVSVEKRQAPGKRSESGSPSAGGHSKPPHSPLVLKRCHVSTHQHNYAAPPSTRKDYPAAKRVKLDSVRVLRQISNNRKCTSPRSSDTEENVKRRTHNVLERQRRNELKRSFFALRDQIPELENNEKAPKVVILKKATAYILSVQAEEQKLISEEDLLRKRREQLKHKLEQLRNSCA
UniProt P49841: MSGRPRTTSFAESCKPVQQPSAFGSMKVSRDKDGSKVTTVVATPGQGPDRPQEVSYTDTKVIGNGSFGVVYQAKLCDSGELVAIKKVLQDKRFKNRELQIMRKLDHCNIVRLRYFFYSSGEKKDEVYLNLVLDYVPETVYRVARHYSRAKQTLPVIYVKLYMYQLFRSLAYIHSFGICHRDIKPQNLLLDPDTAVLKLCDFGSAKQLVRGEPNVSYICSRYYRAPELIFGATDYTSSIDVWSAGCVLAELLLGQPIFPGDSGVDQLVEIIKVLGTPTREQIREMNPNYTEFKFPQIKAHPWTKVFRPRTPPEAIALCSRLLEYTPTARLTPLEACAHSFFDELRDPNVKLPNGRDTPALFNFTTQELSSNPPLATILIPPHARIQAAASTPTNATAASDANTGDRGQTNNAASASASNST

How the values were obtained:
[1] = biological target: T1, HA-tagged AURKA (UniProt O14965); experiment: co-IP; SF188 and GBM22 cells transfected with HA-tagged AURKA; endogenous c-Myc and GSK3β detected
T1 sequence: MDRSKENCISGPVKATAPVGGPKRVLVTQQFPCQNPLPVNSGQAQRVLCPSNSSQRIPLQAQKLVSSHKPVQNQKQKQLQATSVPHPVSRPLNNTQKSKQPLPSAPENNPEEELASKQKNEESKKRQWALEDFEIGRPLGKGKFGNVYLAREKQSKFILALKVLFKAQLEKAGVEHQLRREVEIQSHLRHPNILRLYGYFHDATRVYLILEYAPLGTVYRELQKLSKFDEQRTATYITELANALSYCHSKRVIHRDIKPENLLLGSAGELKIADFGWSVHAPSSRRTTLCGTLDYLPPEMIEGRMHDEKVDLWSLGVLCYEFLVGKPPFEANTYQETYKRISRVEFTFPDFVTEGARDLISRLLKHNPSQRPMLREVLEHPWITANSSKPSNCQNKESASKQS

[2] = biological target: c-Myc (human (endogenous in SF188 and GBM22)) (UniProt P01106); experiment: co-IP; endogenous proteins; SF188 and GBM22 lysates (100 mM NaCl, 50 mM Tris-HCl, 0.5% NP-40) immunoprecipitated with IgG or c-Myc antibody on Dynabeads Protein G overnight at 4 °C, western blot; SF188 also vehicle-treated or treated with increasing dosages of alisertib
[3] = biological target: c-Myc (human (endogenous in SF188 and GBM22)), P01106; experiment: proximity ligation; in situ PLA (Duolink) on fixed, permeabilised SF188 and GBM22 cells with paired primary antibodies to the endogenous proteins; settings: remark: other sources report otherwise
[4] = biological target: c-Myc (human (endogenous in SF188 and GBM22)), P01106; experiment: co-IP; endogenous proteins; SF188 and GBM22 lysates (100 mM NaCl, 50 mM Tris-HCl, 0.5% NP-40) immunoprecipitated with IgG or c-Myc antibody on Dynabeads Protein G overnight at 4 °C, western blot; SF188 also vehicle-treated or treated with increasing dosages of alisertib; settings: remark: other sources report otherwise

## c-Myc (from UniProt P01106 1-454) (other; other documents disagree on this pair)
[1]
  binding: binds

## GSK3β (from UniProt P49841 1-420) (enzyme)
[2]
  binding: binds

B1: Aurora kinase A, O14965 1-403 (enzyme)
chain: T1 sequence
[3]
  binding: binds
[4]
  binding: binds
